“Also recorded” adds a separate entry of the source. Like-named read-outs stand apart in the source and are kept apart here. At least one structure is not confirmed: it was looked up by name or label, or the drawing left a doubt.
Legend:
Pax4 = Pax4 expression in pancreatic alpha cells; format: cell-based, mouse
[1] = system: Min6 cells overexpressing ARX; assay: High-throughput screen for functional repressors of ARX, insulin immunofluorescence; format: cell-based, mouse; settings: Min6 cells induced to overexpress ARX, 72 hours
Description: Mouse pancreatic cell lines αTC1 (provided by Novo Nordisk) and βTC3 (provided by Novo Nordisk) were grown in low-glucose DMEM supplemented by 10% FBS, 50 U/mL penicillin and 50 μg/mL streptomycin. Mouse pancreatic cell lines Min6 (provided by Novo Nordisk) with Doxycycline inducible construct was grown in high-glucose DMEM supplemented by 15% Tet System Approved FBS (Clonetech 631106), 71 uM 2-mercaptoethanol, 50 U/mL penicillin and 50 ug/mL streptomycin. The cell culture for human islets followed established protocols (Walpita et al., 2012).
Compounds (50 nL) were transferred to black optical suitable 384-well plate (Corning 3712) from DMSO stock plates using acoustic transfer (Labcyte Inc.). Min6 cells (3000 cells per well) were plated in 50 ul media on top of the compounds. Three days after treatment, cells were fixed in 3.7% formaldehyde for ten minutes at room temperature. Following PBS washing, cells were fixed with cold pure methanol at −20° C. for 10 minutes, permeabilized by 1% Triton X-100 in PBS for 30 minutes and blocked by 3% BSA in PBS for 30 minutes. Twenty microliters of primary anti-insulin antibody, diluted in 1:2000 in 1.5% BSA, was added per well and incubated in 4° C. overnight. […]
Images were taken by an automated microscope (Perkin Elmer Operetta) using a 20× objective. […] Images were analyzed by the Harmony (Perkin Elmer) software. […]

Sequences of proteins named here, by UniProt entry; tags and fusion partners are left off.
UniProt Q9JLV5, whole entry: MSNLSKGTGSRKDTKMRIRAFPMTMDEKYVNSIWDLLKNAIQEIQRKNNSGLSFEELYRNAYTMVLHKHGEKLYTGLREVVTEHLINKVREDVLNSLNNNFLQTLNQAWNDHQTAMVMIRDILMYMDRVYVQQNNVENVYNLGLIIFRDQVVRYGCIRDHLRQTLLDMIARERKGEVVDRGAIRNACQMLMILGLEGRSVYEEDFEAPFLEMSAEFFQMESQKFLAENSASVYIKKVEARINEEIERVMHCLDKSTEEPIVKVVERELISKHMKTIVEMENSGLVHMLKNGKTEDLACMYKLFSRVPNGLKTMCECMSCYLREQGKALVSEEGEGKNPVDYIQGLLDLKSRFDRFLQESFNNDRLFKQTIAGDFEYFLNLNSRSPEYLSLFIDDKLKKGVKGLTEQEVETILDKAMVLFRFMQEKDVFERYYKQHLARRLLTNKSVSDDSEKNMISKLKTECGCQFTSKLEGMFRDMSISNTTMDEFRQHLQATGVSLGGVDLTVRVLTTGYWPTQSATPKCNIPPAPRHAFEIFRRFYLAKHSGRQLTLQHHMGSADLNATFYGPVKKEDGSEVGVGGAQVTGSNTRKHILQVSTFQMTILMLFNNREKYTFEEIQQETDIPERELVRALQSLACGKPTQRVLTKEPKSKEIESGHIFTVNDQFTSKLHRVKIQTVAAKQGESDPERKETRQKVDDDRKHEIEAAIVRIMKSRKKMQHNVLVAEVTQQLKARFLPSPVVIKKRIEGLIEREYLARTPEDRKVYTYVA

alphaTC1 cells = assay: Insulin expression in alpha cell line, immunofluorescence; format: cell-based, mouse
GABA receptor [2] = assay: Membrane occupancy of GABA receptor, Western blot in aTC1 cells; format: cell-based, mouse
gephyrin [3] = target: T1, gephyrin (Homo sapiens, UniProt Q9NQX3); assay: Gephyrin abundance in human islets, immunofluorescence; format: cell-based; settings: 72 h treatment
T1 construct: immunofluorescence staining of human islets after 72 h treatment with Artemether; from tissue; host or cells: human primary pancreatic islets
T1 sequence (Q9NQX3 1-736): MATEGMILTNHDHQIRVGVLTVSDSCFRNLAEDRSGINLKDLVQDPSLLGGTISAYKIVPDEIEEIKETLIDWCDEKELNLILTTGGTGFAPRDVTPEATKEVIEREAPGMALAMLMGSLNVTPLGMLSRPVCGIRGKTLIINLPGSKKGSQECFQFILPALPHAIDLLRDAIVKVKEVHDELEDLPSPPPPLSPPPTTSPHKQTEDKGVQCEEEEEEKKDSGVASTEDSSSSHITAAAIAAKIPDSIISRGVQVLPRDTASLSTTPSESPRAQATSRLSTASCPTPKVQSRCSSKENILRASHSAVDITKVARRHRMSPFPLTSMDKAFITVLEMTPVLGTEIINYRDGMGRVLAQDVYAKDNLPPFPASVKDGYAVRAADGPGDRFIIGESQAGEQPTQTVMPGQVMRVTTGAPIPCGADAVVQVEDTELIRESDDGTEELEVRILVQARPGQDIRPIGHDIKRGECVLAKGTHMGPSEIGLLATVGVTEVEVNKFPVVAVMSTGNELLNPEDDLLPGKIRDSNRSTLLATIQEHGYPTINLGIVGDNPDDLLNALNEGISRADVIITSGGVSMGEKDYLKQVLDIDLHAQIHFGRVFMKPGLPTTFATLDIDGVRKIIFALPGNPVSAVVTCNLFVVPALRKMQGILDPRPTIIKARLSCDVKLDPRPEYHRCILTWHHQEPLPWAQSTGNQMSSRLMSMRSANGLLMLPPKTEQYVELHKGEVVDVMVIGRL

Btbd9 = target: T2, Btbd9 (Mus musculus, UniProt Q8C726); assay: Cellular thermoshift assay; format: binding; design: alpha cell lysates were warmed to the indicated temperatures; endogenous in cells; host or cells: alpha cell (aTC1) lysates; settings: alpha cell lysates, 40-64 degrees Celsius, Western blot
T2 sequence (Q8C726 1-612): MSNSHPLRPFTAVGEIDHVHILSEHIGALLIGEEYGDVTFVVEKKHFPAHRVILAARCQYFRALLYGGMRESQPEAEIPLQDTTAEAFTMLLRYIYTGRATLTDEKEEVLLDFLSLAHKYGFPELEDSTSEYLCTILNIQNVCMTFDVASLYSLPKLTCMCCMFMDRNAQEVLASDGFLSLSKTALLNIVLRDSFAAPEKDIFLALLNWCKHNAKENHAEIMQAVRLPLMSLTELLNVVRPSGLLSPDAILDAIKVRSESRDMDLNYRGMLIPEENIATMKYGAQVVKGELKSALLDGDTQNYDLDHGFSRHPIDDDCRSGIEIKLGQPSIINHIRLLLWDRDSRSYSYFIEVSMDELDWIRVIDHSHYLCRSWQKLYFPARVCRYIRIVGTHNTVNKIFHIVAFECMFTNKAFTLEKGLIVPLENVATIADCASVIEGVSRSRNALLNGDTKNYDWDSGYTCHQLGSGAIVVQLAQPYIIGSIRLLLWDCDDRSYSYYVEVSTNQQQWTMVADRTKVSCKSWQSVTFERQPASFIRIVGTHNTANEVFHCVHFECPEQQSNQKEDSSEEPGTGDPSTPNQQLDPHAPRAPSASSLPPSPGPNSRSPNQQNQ

gephyrin [4] = target: T3, gephyrin (Mus musculus, UniProt Q8BUV3); assay: Gephyrin protein levels in alpha cells, Western blot and immunofluorescence; format: cell-based; design: endogenous in cells; host or cells: aTC1 mouse pancreatic alpha cell line; settings: alpha cell line
T3 sequence (Q8BUV3 1-769): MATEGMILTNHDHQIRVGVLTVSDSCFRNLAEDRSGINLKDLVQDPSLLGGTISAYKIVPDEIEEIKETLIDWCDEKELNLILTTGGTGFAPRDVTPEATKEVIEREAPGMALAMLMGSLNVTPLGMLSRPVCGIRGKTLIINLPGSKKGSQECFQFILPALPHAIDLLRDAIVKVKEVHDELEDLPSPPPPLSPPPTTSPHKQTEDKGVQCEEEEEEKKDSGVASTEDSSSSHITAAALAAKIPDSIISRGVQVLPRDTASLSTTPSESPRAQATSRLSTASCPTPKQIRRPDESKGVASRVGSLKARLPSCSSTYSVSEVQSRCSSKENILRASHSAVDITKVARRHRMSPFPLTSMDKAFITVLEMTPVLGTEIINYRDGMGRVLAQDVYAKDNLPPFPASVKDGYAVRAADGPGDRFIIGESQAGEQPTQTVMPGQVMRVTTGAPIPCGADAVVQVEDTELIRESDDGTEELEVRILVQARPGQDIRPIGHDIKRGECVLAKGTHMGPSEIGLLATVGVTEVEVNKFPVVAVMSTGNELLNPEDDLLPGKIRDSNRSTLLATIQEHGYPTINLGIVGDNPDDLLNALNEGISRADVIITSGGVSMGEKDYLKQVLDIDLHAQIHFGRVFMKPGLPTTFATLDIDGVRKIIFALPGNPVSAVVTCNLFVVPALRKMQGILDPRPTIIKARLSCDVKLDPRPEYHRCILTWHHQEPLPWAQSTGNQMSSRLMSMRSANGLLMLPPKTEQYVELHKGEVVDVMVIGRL
Description: Whole cell extracts were generated by lysing cells in NP-40 buffer containing 150 mM sodium chloride, 1.0% NP-40 and 50 mM Tris, pH 8.0 supplemented by Protease Inhibitor Cocktail (Roche). The whole-cell lysate (30 μg) was loaded onto a SDSpolyacrylamide gel for electrophoresis at 30 mA per gel, and then transferred by electrophoresis to a nitrocellulose membrane (GE Healthcare Life Science). All the blots were incubated with the corresponding primary antibodies diluted in 1:1000 in 5% milk at 4° C. overnight and with HRP-labeled secondary antibodies (diluted 1:20000) for 1 h. The signals were detected using ECL Prime Western blotting Detection Reagent (Amersham).

gephyrin [5] = target: T3, gephyrin; assay: Cellular thermoshift assay; format: binding; design: alpha cell lysates were warmed to the indicated temperatures; endogenous in cells; host or cells: aTC1 mouse pancreatic alpha cell line; settings: alpha cell lysates, 40-64 degrees Celsius, Western blot
[6] = system: human primary pancreatic islets; assay: Gene expression in artemether-treated human islet cultures; format: cell-based
aTC1 cells = assay: RNA-Sequencing of alpha cells; format: cell-based, mouse
CUL3 = target: T4, CUL3 (Mus musculus, UniProt Q9JLV5); assay: Cellular thermoshift assay; format: binding; settings: alpha cell lysates, 40-64 degrees Celsius, Western blot
T4 construct: alpha cell lysates were warmed to the indicated temperatures; endogenous in cells; host or cells: alpha cell (aTC1) lysates

human pancreatic islets [7] = assay: Glucose-stimulated insulin secretion of human islets, ELISA of supernatants; format: cell-based; settings: 3-day treatment
human pancreatic islets [8] = assay: Insulin/glucagon double-positive cells in human pancreatic islets, immunofluorescence; format: cell-based; settings: 3-day treatment
gephyrin [9] = target: T3, gephyrin; assay: Moco synthase activity of gephyrin in treated lysates; format: biochemical; design: alpha cell lysates were warmed to the indicated temperatures; endogenous in cells; host or cells: aTC1 mouse pancreatic alpha cell line; settings: compound treated lysates
Btbd9-Cul3 interaction = target: T5, Btbd9-Cul3 interaction (Mus musculus, UniProt Q8C726); assay: Co-immunoprecipitation in aTC1 lysates; format: binding; settings: immunoprecipitation with anti-Btbd9, Western blot for CUL3
T5 construct: Alpha cell lysates pre-treated with either artmether or control DMSO were used; endogenous in cells; host or cells: aTC1 mouse alpha cell lysates
T5 sequence (Q8C726 1-612): T2 sequence (Q8C726 1-612)

GABA receptor [10] = assay: GABA receptor abundance in human islets, immunofluorescence; format: cell-based; settings: 72 h treatment
GABAR = assay: Intracellular chloride concentration; format: cell-based, mouse; settings: alpha cells

Compound: C[C@H]1[C@@H](O)O[C@@H]2O[C@@]3(C)CC[C@H]4[C@H](C)CC[C@@H]1[C@@]24OO3 [dihydroartemisinin]
- Pax4 expression in pancreatic alpha cells (Pax4): induce
- insulin levels in the presence of ARX (ARX overexpression phenotype) [1]: fully inhibiting the ARX overexpression phenotype
- insulin expression in alpha cells (alphaTC1 cells): induce

Compound: CO[C@H]1O[C@@H]2O[C@@]3(C)CC[C@H]4[C@H](C)CC[C@@H]([C@H]1C)[C@@]24OO3 [artemether]
- membrane occupancy of GABA receptor (GABA receptor [2]): higher
- levels of gephyrin protein (gephyrin [3]): increased levels
- Pax4 expression in pancreatic alpha cells (Pax4): induce
- thermal stability of Btbd9 (Btbd9): stabilization
- thermal stability of Btbd9 (Btbd9; listed as Artemether): changes in the thermal stability
- gephyrin protein levels (gephyrin [4]): increases gephyrin protein levels
- thermal stability of gephyrin (gephyrin [5]): destabilized
- thermal stability of gephyrin (gephyrin [5]; listed as Artemether): reduces the thermal stability
- expression of alpha cell factors ARX and PPY [6]: dramatically reduced
- expression of beta cell factors including PAX6 and PAX4 [6]: slightly increased expression
- expression of genes Nrxn3, Sv2b and Shc3 (synaptic transmission pathway) (aTC1 cells): significant upregulation
- thermal stability of Cul3 (CUL3): changes in the thermal stability
- secretion of insulin (human pancreatic islets [7]): increased
- insulin levels in the presence of ARX (ARX overexpression phenotype) [1]: fully inhibiting the ARX overexpression phenotype
- insulin expression in alpha cells (alphaTC1 cells): induce
- insulin expression in alpha cells (alphaTC1 cells; listed as Artemether): increases insulin protein levels
- number of double-positive cells expressing both insulin and glucagon (human pancreatic islets [8]): increased
- Moco synthase activity of gephyrin (gephyrin [9]): increased MoCo synthesis capacity
- Moco synthase activity of gephyrin (gephyrin [9]; listed as Artemether): increases Moco synthase activity
- interaction between Btbd9 and Cul3 (Btbd9-Cul3 interaction): fully blocked; also recorded: inhibit the interaction between Btbd9 and Cul3
- membrane staining for GABA receptor (GABA receptor [10]): increased membrane staining
- intracellular chloride concentration (GABAR): higher intracellular chlorid ion concentrations
- intracellular chloride concentration (GABAR; listed as Artemether): increases intracellular chloride concentration
